{"source": "PubChem BioAssay AID1671195 (Yale University, 2021)", "purpose": "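Knockdowns that increase or decrease uptake of fluorescent LDL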 (primary screen)", "cell system": "human Huh7 hepatoma cells", "reagents": "siRNA pool against human genes, 18 nM", "timing": "about 2 to 2.5 days of knockdown, then 8 h LDL uptake", "conditions": "DiI-labelled LDL at 30 µg/ml for 8 h, in lipoprotein-deficient serum medium", "read-out": "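Per-cell DiI-LDL intensity by automated imaging; well means scaled to the plate median and given as a robust z-score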", "reading the numbers": "robust z-score: higher = more LDL uptake after knockdown", "call rule": "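Active when two or more replicates show a robust z-score above 2 or below -2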", "note": "In all, the deposit lists about 22,000 reagents; shown is a random part of them. About 1,510 of them (6.9%) were called active. 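Active includes knockdowns raising or lowering LDL uptake; positive z-scores mean more uptake, negative mean less.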 Unmarked entries are inactive."}
{"Target gene": "LRRC8B (leucine rich repeat containing 8 VRAC subunit B)", "robust z-score, replicate 1": 0.291, "robust z-score, replicate 2": -0.327, "robust z-score, replicate 3": 0.788}
{"Target gene": "RPS15AP9 (ribosomal protein S15a pseudogene 9)", "robust z-score, replicate 1": -1.22, "robust z-score, replicate 2": -1.03, "robust z-score, replicate 3": -0.973}
{"Target gene": "APPL2", "robust z-score, replicate 1": 1.38, "robust z-score, replicate 2": 0.101, "robust z-score, replicate 3": 1.09}
{"Target gene": "DIO1 (iodothyronine deiodinase 1)", "robust z-score, replicate 1": 2.29, "robust z-score, replicate 2": 0.343, "robust z-score, replicate 3": 0.489}
{"Target gene": "SDHC (succinate dehydrogenase complex subunit C)", "robust z-score, replicate 1": 1.24, "robust z-score, replicate 2": 0.615, "robust z-score, replicate 3": 0.804}
{"Target gene": "PGBDF (plakoglobin binding and degradation factor)", "robust z-score, replicate 1": -0.649, "robust z-score, replicate 2": -1.1, "robust z-score, replicate 3": -1.06}
{"Target gene": "DAB2IP (DAB2 interacting protein)", "robust z-score, replicate 1": 0.776, "robust z-score, replicate 2": 0.607, "robust z-score, replicate 3": 0.454}
{"Target gene": "EIF3H (eukaryotic translation initiation factor 3 subunit H)", "robust z-score, replicate 1": 0.0829, "robust z-score, replicate 2": 2.11, "robust z-score, replicate 3": -0.0348}
{"Target gene": "CALHM6 (calcium homeostasis modulator family member 6)", "robust z-score, replicate 1": 0.0874, "robust z-score, replicate 2": -0.0912, "robust z-score, replicate 3": -0.458}
{"Target gene": "ALDH1L2 (aldehyde dehydrogenase 1 family member L2)", "robust z-score, replicate 1": -0.964, "robust z-score, replicate 2": -0.814, "robust z-score, replicate 3": -0.835}
{"Target gene": "MORN4 (MORN repeat containing 4)", "robust z-score, replicate 1": "3.34 (active)", "robust z-score, replicate 2": 2.93, "robust z-score, replicate 3": 2.34}
{"Target gene": "DCP1A (decapping mRNA 1A)", "robust z-score, replicate 1": -1.29, "robust z-score, replicate 2": -1.41, "robust z-score, replicate 3": -1.4}
{"Target gene": "NUCB2 (nucleobindin 2)", "robust z-score, replicate 1": 0.198, "robust z-score, replicate 2": 0.903, "robust z-score, replicate 3": -0.954}
{"Target gene": "CPA4 (carboxypeptidase A4)", "robust z-score, replicate 1": -1.19, "robust z-score, replicate 2": -1.23, "robust z-score, replicate 3": -1.25}
{"Target gene": "RGS11 (regulator of G protein signaling 11)", "robust z-score, replicate 1": 0.099, "robust z-score, replicate 2": -0.166, "robust z-score, replicate 3": -0.0251}
{"Target gene": "CAV3 (caveolin 3)", "robust z-score, replicate 1": -0.0444, "robust z-score, replicate 2": -0.121, "robust z-score, replicate 3": -0.59}
{"Target gene": "KCNE2", "robust z-score, replicate 1": -0.97, "robust z-score, replicate 2": -0.824, "robust z-score, replicate 3": -0.851}
{"Target gene": "MT1X (metallothionein 1X)", "robust z-score, replicate 1": -0.048, "robust z-score, replicate 2": -1.3, "robust z-score, replicate 3": -0.608}
{"Target gene": "MFAP3 (microfibril associated protein 3)", "robust z-score, replicate 1": -1.15, "robust z-score, replicate 2": -0.961, "robust z-score, replicate 3": -1.59}
{"Target gene": "CYB561D2 (cytochrome b561 family member D2)", "robust z-score, replicate 1": 1.94, "robust z-score, replicate 2": 1.51, "robust z-score, replicate 3": 1.29}
{"Target gene": "ACY3 (aminoacylase 3)", "robust z-score, replicate 1": 1.71, "robust z-score, replicate 2": 1.26, "robust z-score, replicate 3": 1.19}
{"Target gene": "ZC3H11A (zinc finger CCCH-type containing 11A)", "robust z-score, replicate 1": 1.39, "robust z-score, replicate 2": 1.4, "robust z-score, replicate 3": 1.52}
{"Target gene": "SMIM7 (small integral membrane protein 7)", "robust z-score, replicate 1": 0.528, "robust z-score, replicate 2": -0.659, "robust z-score, replicate 3": 0.0663}
{"Target gene": "PLOD3 (procollagen-lysine,2-oxoglutarate 5-dioxygenase 3)", "robust z-score, replicate 1": 0.527, "robust z-score, replicate 2": 0.369, "robust z-score, replicate 3": 0.582}
{"Target gene": "LOC390377 (retired record)", "robust z-score, replicate 1": -0.107, "robust z-score, replicate 2": -0.259, "robust z-score, replicate 3": -0.488}
{"Target gene": "PRKAR1B (protein kinase cAMP-dependent type I regulatory subunit beta)", "robust z-score, replicate 1": -0.255, "robust z-score, replicate 2": -0.629, "robust z-score, replicate 3": -0.784}
{"Target gene": "ANAPC15 (anaphase promoting complex subunit 15)", "robust z-score, replicate 1": "1.95 (active)", "robust z-score, replicate 2": 3.51, "robust z-score, replicate 3": 1.51}
{"Target gene": "SNX30 (sorting nexin family member 30)", "robust z-score, replicate 1": -1.57, "robust z-score, replicate 2": -1.95, "robust z-score, replicate 3": -1.74}
{"Target gene": "LOC442424 (retired record)", "robust z-score, replicate 1": -1.28, "robust z-score, replicate 2": -0.703, "robust z-score, replicate 3": -1.14}
{"Target gene": "RDM1 (RAD52 motif containing 1)", "robust z-score, replicate 1": 0.16, "robust z-score, replicate 2": -0.618, "robust z-score, replicate 3": -0.796}

2 of these entries, set out differently.
{"Target gene":"SDHC (succinate dehydrogenase complex subunit C)","robust z-score, replicate 1":1.24,"robust z-score, replicate 2":0.615,"robust z-score, replicate 3":0.804}
{"Target gene":"PGBDF (plakoglobin binding and degradation factor)","robust z-score, replicate 1":-0.649,"robust z-score, replicate 2":-1.1,"robust z-score, replicate 3":-1.06}
